This note sets out measurements from patent publication US20040180394A1, “Assays for inositol phosphates” (priority 2001, published 2004).

This data set in a line: Detection of 3H-inositol-1-phosphate versus 3H-inositol by YSi SPA beads. Particulars: 1 mg YSi SPA beads per well, 20 mM formic acid final, 1 mM ammonium phosphate pH 8.

As to `O=P(O)(O)OC1[C@H](O)[C@H](O)C(O)[C@H](O)[C@H]1O` (some centres unmarked) [3H-inositol-1-phosphate], the “efficiency of detection by YSi SPA beads relative to detection using Microscint-20” value stood at 55%. Regarding 3H-inositol, the “efficiency of detection by YSi SPA beads relative to detection using Microscint-20” value turned out to be 5%.
